Source: PubChem BioAssay AID720505 (Drosophila RNAi Screening Center, 2013)

Screen: 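Knock-downs that reduce calcium influx once internal stores are emptied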 (primary screen)
System: Drosophila S2R+ cells
Knock-down reagent: long dsRNA against Drosophila genes
Challenge: thapsigargin (2 µM) in calcium-free buffer to empty internal stores, then 2 mM calcium added back
Measured: 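Stores emptied by 2 µM thapsigargin without calcium, then 2 mM calcium re-added; fluo-4 fluorescence followed by FLIPR in 384-well plates, per-well averaged endpoint, raw; two screen passes, some wells retested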
Direction: calcium signal and retest calcium signal: higher = more calcium entry after store depletion
Rule for the call: 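Knock-downs counted as hits when calcium entry dropped relative to STIM1 positive and Rho1 negative controls present on each plate; roughly 1500 genes called, with reductions of differing size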
Calls: active = called as lowering calcium entry; inactive = not called
In all, the deposit lists about 20,000 reagents; below is a random part of those that have a named target and a result. Of all reagents, about 2,100 (10%) got an active call. 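Raw plate signals without normalisation; calls rest on control-based scores that were not deposited; replicate 2 separates called from uncalled poorly.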 Unmarked entries are inactive. Reagents against one gene are numbered here. Names joined by + are all predicted targets of the reagent. The record does not give: the amount of reagent, the time to read-out.

For TpnC25D, the entry reads calcium signal, replicate 1 = 182; calcium signal, replicate 2 = 98.
Against Ube3a, the entry reads calcium signal, replicate 1 = 144; calcium signal, replicate 2 = 88.2.
Depletion of CG1387 resulted in: calcium signal, replicate 1 = 135; calcium signal, replicate 2 = 79.2.
CG12910 showed calcium signal, replicate 1 = 164; calcium signal, replicate 2 = 165.
Knock-down of Obp56c #1 resulted in: calcium signal, replicate 1 = 125; calcium signal, replicate 2 = 151; retest calcium signal, replicate 1 = 107; retest calcium signal, replicate 2 = 75.4.
With knock-down of Obp56c #2 the results were calcium signal, replicate 1 = 102; calcium signal, replicate 2 = 184.
For CG1172 + Or83a, the values are calcium signal, replicate 1 = 113; calcium signal, replicate 2 = 129.
kuz showed calcium signal, replicate 1 = 91.5; calcium signal, replicate 2 = 150.
For 5PtaseI #1 the deposit lists calcium signal, replicate 1 = 186; calcium signal, replicate 2 = 325.
5PtaseI #2 showed calcium signal, replicate 1 = 82; calcium signal, replicate 2 = 254.
Depletion of cl resulted in: calcium signal, replicate 1 = 97.6; calcium signal, replicate 2 = 268.
For Lamtor2 + CG30120 #1, the values are calcium signal, replicate 1 = 120; calcium signal, replicate 2 = 97.6.
For Lamtor2 + CG30120 #2, the entry reads calcium signal, replicate 1 = 169; calcium signal, replicate 2 = 152.
After knock-down of CG31087 the results were calcium signal, replicate 1 = 218; calcium signal, replicate 2 = 131.
Spn43Aa scored calcium signal, replicate 1 = 172; calcium signal, replicate 2 = 96.5.
After knock-down of Cpr, the screen gave calcium signal, replicate 1 = 111; calcium signal, replicate 2 = 205.
Against CG16756 the deposit lists calcium signal, replicate 1 = 61.9 (active); calcium signal, replicate 2 = 84.7.
Prp39 gave calcium signal, replicate 1 = 116; calcium signal, replicate 2 = 147.
Knock-down of CG17959 came out at: calcium signal, replicate 1 = 85.2; calcium signal, replicate 2 = 157.
After knock-down of CG5846, the record shows calcium signal, replicate 1 = 120; calcium signal, replicate 2 = 93.4.
Knock-down of Rbfox1 #1 came out at: calcium signal, replicate 1 = 7092; calcium signal, replicate 2 = 125.
Rbfox1 #2 scored calcium signal, replicate 1 = 74.4 (active); calcium signal, replicate 2 = 96.5; retest calcium signal, replicate 1 = 85.9; retest calcium signal, replicate 2 = 5714.
After knock-down of Rbfox1 #3, the screen gave calcium signal, replicate 1 = 59.4; calcium signal, replicate 2 = 81.7.
Rbfox1 #4 showed calcium signal, replicate 1 = 171; calcium signal, replicate 2 = 118.
For Rbfox1 #5, the entry reads calcium signal, replicate 1 = 126; calcium signal, replicate 2 = 161.
Against zf30C the deposit lists calcium signal, replicate 1 = 106; calcium signal, replicate 2 = 115.
Knock-down of Cpr97Ea gave: calcium signal, replicate 1 = 152; calcium signal, replicate 2 = 159.
CG14459 #1 showed calcium signal, replicate 1 = 77; calcium signal, replicate 2 = 84.9.
After knock-down of CG14459 #2, the screen gave calcium signal, replicate 1 = 115; calcium signal, replicate 2 = 157.

Entries above whose gene name begins with O or o:
Obp56c #1: calcium signal, replicate 1 = 125; calcium signal, replicate 2 = 151; retest calcium signal, replicate 1 = 107; retest calcium signal, replicate 2 = 75.4
Obp56c #2: calcium signal, replicate 1 = 102; calcium signal, replicate 2 = 184
